Results as given in article PMC7320018.

The chains behind the UniProt entries cited, without tags or fusion partners.
UniProt P53350: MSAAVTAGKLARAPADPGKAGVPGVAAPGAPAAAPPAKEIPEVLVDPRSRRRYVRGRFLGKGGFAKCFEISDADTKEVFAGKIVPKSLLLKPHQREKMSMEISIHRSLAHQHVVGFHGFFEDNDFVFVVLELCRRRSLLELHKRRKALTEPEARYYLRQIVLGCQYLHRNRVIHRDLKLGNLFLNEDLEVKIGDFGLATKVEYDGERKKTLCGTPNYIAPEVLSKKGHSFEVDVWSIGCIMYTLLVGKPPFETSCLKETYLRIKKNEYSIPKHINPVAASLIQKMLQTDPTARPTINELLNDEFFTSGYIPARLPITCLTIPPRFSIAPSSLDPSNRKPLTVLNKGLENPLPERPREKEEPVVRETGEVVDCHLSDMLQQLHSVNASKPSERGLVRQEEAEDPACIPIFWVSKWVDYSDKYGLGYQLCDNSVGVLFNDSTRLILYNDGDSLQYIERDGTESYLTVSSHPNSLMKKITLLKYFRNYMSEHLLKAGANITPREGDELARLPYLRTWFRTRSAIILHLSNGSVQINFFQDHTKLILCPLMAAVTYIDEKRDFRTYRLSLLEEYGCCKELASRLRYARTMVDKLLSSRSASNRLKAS

Columns and labels:
[1] = target: T1, TBC1 Domain Family Member 9, tagged bait (3xFLAG or BirA*-FLAG construct, not told which) (human) (UniProt Q6ZT07); assay: affinity purification with mass spectrometry + proximity labelling; interactor named in the discussion from the AP-MS and BioID screens in HEK293 Flp-In T-REx; which of the two screens gave it is not told
T1 sequence: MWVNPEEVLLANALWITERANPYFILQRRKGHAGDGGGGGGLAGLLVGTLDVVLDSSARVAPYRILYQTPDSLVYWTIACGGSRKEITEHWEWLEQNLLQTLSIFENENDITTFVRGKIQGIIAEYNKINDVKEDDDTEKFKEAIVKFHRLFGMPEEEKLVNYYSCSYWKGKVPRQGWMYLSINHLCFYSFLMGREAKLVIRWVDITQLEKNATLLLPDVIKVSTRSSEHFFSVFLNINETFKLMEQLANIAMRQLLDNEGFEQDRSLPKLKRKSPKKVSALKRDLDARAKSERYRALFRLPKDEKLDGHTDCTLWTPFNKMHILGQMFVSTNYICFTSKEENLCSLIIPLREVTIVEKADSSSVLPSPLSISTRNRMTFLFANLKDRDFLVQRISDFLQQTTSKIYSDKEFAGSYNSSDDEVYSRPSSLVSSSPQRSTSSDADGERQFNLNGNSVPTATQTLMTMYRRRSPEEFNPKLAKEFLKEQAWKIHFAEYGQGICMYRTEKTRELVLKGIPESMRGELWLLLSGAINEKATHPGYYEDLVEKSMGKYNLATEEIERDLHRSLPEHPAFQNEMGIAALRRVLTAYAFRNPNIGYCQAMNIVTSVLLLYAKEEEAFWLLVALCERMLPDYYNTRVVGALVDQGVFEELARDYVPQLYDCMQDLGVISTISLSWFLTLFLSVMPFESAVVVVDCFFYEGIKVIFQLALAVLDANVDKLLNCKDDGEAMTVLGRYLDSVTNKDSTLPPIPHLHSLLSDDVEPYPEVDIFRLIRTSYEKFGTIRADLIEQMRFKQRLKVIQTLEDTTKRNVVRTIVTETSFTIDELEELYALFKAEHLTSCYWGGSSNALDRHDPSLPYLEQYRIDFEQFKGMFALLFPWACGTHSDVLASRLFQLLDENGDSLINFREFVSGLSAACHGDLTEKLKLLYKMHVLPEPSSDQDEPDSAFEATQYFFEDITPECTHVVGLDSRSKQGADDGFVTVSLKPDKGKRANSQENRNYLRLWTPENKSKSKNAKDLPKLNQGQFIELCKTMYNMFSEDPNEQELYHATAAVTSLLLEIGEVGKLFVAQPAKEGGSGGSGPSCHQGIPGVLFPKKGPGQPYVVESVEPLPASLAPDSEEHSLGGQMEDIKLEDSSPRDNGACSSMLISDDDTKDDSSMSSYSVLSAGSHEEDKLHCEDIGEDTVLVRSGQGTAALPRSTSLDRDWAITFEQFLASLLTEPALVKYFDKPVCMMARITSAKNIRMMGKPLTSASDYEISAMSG

[2] = target: T2, Milk Fat Globule-EGF Factor 8 Protein fused to BirA*-FLAG (human) (UniProt Q08431); assay: proximity labelling; BioID: BirA*-FLAG bait induced with tetracycline and 50 µM biotin 24 h in HEK293 Flp-In T-REx; RIPA lysis; streptavidin sepharose 3 h at 4 °C; on-bead trypsin, LC-MS/MS; SAINTexpress BFDR ≤ 0.01 against BirA*-FLAG controls (GFP, NLS, alone), then Crapome filter
T2 sequence: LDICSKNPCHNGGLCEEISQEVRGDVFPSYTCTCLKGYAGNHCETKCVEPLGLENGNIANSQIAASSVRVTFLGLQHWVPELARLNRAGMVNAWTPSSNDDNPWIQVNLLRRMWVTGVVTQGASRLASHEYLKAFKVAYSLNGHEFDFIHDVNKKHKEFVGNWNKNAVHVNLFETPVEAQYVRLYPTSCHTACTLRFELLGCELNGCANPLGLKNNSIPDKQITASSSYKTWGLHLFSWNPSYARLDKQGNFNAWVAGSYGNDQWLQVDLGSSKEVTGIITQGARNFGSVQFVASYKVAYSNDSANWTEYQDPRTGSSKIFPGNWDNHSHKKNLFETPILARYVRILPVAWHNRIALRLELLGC

[3] = target: T3, TBC1 Domain Family Member 9 with 3xFLAG (human) (UniProt Q6ZT07); assay: affinity purification with mass spectrometry; 3xFLAG bait induced 24 h with tetracycline in HEK293 Flp-In T-REx; lysis in 0.1% NP-40, 50 mM HEPES-NaOH pH 8.0, 100 mM KCl, 2 mM EDTA, 10% glycerol; anti-FLAG M2 magnetic beads 2 h at 4 °C; on-bead trypsin, LC-MS/MS; SAINTexpress BFDR ≤ 0.01 against untagged parental cells, then Crapome filter
T3 sequence: T1 sequence

[4] = target: T4, TBC1 Domain Family Member 9 fused to BirA*-FLAG (human) (UniProt Q6ZT07); assay: proximity labelling; BioID: BirA*-FLAG bait induced with tetracycline and 50 µM biotin 24 h in HEK293 Flp-In T-REx; RIPA lysis; streptavidin sepharose 3 h at 4 °C; on-bead trypsin, LC-MS/MS; SAINTexpress BFDR ≤ 0.01 against BirA*-FLAG controls (GFP, NLS, alone), then Crapome filter
T4 sequence: T1 sequence

[5] = target: T2, Milk Fat Globule-EGF Factor 8 Protein fused to BirA*-FLAG (human); assay: as above; remark: listed apart in the source

Molecule: polo-like kinase 1 (from UniProt P53350 1-603)
- binding [1]: binds

Molecule: DXDR (human (endogenous in HEK293))
- binding [2]: binds

B1: ADP Ribosylation Factor Like GTPase 8A (protein, UniProt Q96BM9 1-186)
chain: MIALFNKLLDWFKALFWKEEMELTLVGLQYSGKTTFVNVIASGQFNEDMIPTVGFNMRKITKGNVTIKLWDIGGQPRFRSMWERYCRGVSAIVYMVDAADQEKIEASKNELHNLLDKPQLQGIPVLVLGNKRDLPGALDEKELIEKMNLSAIQDREICCYSISCKEKDNIDITLQWLIQHSKSRRS
- binding [3]: binds

B2: ABHD16A (protein, UniProt O95870 1-558)
chain: MAKLLSCVLGPRLYKIYRERDSERAPASVPETPTAVTAPHSSSWDTYYQPRALEKHADSILALASVFWSISYYSSPFAFFYLYRKGYLSLSKVVPFSHYAGTLLLLLAGVACLRGIGRWTNPQYRQFITILEATHRNQSSENKRQLANYNFDFRSWPVDFHWEEPSSRKESRGGPSRRGVALLRPEPLHRGTADTLLNRVKKLPCQITSYLVAHTLGRRMLYPGSVYLLQKALMPVLLQGQARLVEECNGRRAKLLACDGNEIDTMFVDRRGTAEPQGQKLVICCEGNAGFYEVGCVSTPLEAGYSVLGWNHPGFAGSTGVPFPQNEANAMDVVVQFAIHRLGFQPQDIIIYAWSIGGFTATWAAMSYPDVSAMILDASFDDLVPLALKVMPDSWRGLVTRTVRQHLNLNNAEQLCRYQGPVLLIRRTKDEIITTTVPEDIMSNRGNDLLLKLLQHRYPRVMAEEGLRVVRQWLEASSQLEEASIYSRWEVEEDWCLSVLRSYQAEHGPDFPWSVGEDMSADGRRQLALFLARKHLHNFEATHCTPLPAQNFQMPWHL
- binding [4]: binds

B3: TRIM13 (protein, UniProt O60858 1-407)
chain: MELLEEDLTCPICCSLFDDPRVLPCSHNFCKKCLEGILEGSVRNSLWRPAPFKCPTCRKETSATGINSLQVNYSLKGIVEKYNKIKISPKMPVCKGHLGQPLNIFCLTDMQLICGICATRGEHTKHVFCSIEDAYAQERDAFESLFQSFETWRRGDALSRLDTLETSKRKSLQLLTKDSDKVKEFFEKLQHTLDQKKNEILSDFETMKLAVMQAYDPEINKLNTILQEQRMAFNIAEAFKDVSEPIVFLQQMQEFREKIKVIKETPLPPSNLPASPLMKNFDTSQWEDIKLVDVDKLSLPQDTGTFISKIPWSFYKLFLLILLLGLVIVFGPTMFLEWSLFDDLATWKGCLSNFSSYLTKTADFIEQSVFYWEQVTDGFFIFNERFKNFTLVVLNNVAEFVCKYKLL
- binding [5]: binds

Where two headings read alike, the source gives them in different places. These are yes or no findings as the source states them, for the method shown. Binding seen in cells or lysates may run through a third protein. These calls come from enrichment with a bait or labelling near it, and not all partners need be listed. Sequences can lack the tags named with a protein.
